{"source": "patent US20250339419A1", "about": "“METHODS OF TREATING OCULAR INFLAMMATORY DISEASES” (priority 2021, published 2025)", "experiment": "Phase 1 double-masked multiple-dose plasma PK study of roflumilast topical ophthalmic suspension (0.3%)", "format": "in vivo, human", "conditions": "Day 8, individual profiles, FIGS. 18-19", "method": "A pharmacokinetic (PK) study of a roflumilast topical ophthalmic suspension was conducted. Data at Day 1 (Example 15), Day 8 (Example 16), and comparative data (Example 17) is provided.\nThe study was a Phase 1, double-masked, multiple-dose study conducted in healthy volunteers. The multiple-dose study was conducted over a single dose level where participants were randomly assigned to receive a masked dose of roflumilast topical ophthalmic suspension eye drops (n=14) or vehicle only (n=2) as set forth in Table 7, administered as a single drop in each eye BID (twice daily, every 12 hours) for seven days, followed by a single morning dose on Day 8.\nBlood samples were collected at multiple time points on Days 1, 2, 8, and 9. […]\nRoflumilast topical ophthalmic suspension and roflumilast n-oxide (metabolite) concentrations in plasma were evaluated using Phoenix™ WinNonlin® version and 8.4 (Pharsight Corporation, USA). For both analytes, the upper limit of quantification (ULOQ) was […] and the lower limit of quantification (LLOQ) was […].\nAnalysis Procedures: Actual collection times were used for PK parameter determinations, calculated with respect to the dose time. […] The goodness of fit of the regression was evaluated using the square of the correlation coefficient (adjusted R2) which was required to be at least 0.8 for the λz l value to be considered reliable. […]", "note": "At least one structure is not confirmed: it was looked up by name or label, or the drawing left a doubt."}
{"smiles": "O=C(Nc1c(Cl)c[n+]([O-])cc1Cl)c1ccc(OC(F)F)c(OCC2CC2)c1", "note": "[Roflumilast N-oxide, 3-cyclopropylmethoxy-4-difluoromethoxy-N-(3,5-dichloropyrid-4-yl 1-oxide)benzamide]", "values": [{"measurement": "time at which Cmax occurred post dose", "result": "up to 12 hours"}]}
